The record followed here is PMC4006922.

Protein sequences, listed by entry. Tags and fused reporters are not part of them.
UniProt O00459: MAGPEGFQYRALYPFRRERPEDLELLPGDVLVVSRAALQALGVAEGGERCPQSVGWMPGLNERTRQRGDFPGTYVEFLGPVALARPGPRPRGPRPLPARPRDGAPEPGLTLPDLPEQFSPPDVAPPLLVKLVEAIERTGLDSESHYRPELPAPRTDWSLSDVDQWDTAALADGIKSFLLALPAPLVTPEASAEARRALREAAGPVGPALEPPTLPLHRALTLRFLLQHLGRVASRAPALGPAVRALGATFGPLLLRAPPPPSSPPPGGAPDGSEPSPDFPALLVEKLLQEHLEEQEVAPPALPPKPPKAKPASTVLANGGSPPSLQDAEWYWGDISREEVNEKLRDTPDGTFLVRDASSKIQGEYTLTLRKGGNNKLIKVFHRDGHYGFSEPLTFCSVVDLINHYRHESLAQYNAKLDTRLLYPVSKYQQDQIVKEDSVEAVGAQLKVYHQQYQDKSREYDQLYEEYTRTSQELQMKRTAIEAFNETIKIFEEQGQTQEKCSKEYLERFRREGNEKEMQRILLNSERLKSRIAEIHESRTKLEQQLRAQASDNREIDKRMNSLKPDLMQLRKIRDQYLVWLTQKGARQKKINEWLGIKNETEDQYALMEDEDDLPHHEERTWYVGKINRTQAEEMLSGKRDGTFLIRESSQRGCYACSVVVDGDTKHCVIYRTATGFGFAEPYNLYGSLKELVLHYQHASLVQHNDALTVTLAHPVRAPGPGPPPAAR
UniProt Q14160: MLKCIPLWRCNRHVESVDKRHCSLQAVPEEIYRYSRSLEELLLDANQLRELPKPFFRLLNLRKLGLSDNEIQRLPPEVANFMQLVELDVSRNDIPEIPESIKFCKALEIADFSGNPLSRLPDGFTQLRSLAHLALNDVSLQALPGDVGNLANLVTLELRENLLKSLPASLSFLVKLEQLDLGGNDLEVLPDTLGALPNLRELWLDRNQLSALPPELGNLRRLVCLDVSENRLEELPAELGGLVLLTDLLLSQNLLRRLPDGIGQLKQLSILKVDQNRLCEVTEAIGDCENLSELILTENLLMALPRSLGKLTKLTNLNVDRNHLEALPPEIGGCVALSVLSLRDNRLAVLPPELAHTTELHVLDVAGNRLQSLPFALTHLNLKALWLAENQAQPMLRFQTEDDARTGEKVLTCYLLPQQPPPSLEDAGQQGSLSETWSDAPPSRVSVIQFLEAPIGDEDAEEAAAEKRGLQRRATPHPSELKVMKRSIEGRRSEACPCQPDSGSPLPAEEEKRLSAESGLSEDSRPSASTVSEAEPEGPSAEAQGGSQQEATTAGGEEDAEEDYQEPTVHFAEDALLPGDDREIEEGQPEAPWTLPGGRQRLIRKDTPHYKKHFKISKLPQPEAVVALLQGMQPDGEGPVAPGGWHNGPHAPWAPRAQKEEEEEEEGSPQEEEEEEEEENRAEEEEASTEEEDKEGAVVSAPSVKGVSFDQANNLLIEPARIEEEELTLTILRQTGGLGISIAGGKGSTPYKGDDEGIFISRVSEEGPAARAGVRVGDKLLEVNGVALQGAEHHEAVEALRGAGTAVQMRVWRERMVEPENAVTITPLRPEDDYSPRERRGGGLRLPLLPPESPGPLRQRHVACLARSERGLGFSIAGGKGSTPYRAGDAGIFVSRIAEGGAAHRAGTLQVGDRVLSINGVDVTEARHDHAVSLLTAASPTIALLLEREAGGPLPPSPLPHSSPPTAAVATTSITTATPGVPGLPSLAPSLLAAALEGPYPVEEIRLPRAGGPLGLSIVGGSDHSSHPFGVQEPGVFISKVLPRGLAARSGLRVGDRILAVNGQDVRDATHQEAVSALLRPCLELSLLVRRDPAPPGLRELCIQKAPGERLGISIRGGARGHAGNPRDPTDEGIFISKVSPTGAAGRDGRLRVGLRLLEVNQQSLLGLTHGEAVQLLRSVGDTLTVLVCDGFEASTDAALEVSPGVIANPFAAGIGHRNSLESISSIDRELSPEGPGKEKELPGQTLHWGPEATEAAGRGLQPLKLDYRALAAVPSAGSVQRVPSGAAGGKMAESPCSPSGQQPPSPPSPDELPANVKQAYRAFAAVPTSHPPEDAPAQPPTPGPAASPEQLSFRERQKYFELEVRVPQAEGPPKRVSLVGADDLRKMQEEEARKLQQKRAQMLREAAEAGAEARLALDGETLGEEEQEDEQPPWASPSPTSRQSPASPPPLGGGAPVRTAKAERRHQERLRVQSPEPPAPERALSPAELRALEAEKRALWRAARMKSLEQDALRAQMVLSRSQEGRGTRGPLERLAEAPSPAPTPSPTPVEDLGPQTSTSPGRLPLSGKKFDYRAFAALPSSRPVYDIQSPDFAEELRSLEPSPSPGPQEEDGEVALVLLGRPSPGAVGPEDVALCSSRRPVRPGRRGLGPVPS

No constants are given. Whether binding was seen depends on the method and setting. Binding seen in cells or lysates may run through a third protein. Some results given as binding are weak or reduced against the parent protein; the word gives no strength. Sequences can lack the tags named with a protein.

This assay has as its target T1, GST-Ad9 E4-ORF1 fusion protein (human adenovirus type 9 (Ad9)) (UniProt P89079).
T1 sequence: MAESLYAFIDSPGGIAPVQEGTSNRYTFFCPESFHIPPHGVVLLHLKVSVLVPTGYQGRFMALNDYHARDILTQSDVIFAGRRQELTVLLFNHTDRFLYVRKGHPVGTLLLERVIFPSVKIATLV
Briefly: pull-down; MCF10A cell extract (500 µg of protein, RIPA buffer) with GST or GST-Ad9 E4-ORF1 on glutathione-sepharose beads; immunoblot; only the target purified. (In western blotting, separated proteins are transferred to a membrane and probed.)

Take “PI3K regulatory subunit p85β (endogenous) (from UniProt O00459 1-728)”: the binding result was “binds”.

“scribble (endogenous cellular PDZ protein) (from UniProt Q14160 1-1655)”: the binding result was “no binding”.
